This is one part of the list. Most values lie at the level of the controls, where differences are scatter.

Sequences of proteins named here, by UniProt entry; tags and fusion partners are left off. A change or cut given only in a name is not applied to a line headed by its entry.
UniProt Q13107: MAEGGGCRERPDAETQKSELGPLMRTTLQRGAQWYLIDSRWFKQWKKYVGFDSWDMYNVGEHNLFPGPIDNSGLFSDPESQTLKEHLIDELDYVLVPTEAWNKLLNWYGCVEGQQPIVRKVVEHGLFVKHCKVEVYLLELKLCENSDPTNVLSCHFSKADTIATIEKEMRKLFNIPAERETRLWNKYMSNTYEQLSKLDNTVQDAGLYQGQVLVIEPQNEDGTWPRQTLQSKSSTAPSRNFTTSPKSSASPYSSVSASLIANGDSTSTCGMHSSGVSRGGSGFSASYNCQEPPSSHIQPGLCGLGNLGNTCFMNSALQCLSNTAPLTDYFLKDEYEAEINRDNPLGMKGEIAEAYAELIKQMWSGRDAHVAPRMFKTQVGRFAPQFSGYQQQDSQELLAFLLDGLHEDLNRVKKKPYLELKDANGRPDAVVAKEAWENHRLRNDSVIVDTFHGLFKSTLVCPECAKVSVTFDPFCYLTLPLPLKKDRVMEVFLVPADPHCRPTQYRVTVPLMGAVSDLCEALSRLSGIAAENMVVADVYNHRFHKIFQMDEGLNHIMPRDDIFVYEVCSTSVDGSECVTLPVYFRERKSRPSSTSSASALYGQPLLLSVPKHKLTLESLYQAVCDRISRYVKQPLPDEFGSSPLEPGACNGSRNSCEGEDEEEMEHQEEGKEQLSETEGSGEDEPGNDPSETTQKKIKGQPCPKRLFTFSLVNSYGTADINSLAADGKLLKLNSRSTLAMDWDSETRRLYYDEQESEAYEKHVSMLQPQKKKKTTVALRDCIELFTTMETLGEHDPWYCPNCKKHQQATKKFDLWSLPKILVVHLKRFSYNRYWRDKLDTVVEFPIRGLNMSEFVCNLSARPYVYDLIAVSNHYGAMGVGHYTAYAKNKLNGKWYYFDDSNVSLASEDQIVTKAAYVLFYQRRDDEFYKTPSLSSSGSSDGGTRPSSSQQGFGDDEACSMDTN
UniProt Q14008: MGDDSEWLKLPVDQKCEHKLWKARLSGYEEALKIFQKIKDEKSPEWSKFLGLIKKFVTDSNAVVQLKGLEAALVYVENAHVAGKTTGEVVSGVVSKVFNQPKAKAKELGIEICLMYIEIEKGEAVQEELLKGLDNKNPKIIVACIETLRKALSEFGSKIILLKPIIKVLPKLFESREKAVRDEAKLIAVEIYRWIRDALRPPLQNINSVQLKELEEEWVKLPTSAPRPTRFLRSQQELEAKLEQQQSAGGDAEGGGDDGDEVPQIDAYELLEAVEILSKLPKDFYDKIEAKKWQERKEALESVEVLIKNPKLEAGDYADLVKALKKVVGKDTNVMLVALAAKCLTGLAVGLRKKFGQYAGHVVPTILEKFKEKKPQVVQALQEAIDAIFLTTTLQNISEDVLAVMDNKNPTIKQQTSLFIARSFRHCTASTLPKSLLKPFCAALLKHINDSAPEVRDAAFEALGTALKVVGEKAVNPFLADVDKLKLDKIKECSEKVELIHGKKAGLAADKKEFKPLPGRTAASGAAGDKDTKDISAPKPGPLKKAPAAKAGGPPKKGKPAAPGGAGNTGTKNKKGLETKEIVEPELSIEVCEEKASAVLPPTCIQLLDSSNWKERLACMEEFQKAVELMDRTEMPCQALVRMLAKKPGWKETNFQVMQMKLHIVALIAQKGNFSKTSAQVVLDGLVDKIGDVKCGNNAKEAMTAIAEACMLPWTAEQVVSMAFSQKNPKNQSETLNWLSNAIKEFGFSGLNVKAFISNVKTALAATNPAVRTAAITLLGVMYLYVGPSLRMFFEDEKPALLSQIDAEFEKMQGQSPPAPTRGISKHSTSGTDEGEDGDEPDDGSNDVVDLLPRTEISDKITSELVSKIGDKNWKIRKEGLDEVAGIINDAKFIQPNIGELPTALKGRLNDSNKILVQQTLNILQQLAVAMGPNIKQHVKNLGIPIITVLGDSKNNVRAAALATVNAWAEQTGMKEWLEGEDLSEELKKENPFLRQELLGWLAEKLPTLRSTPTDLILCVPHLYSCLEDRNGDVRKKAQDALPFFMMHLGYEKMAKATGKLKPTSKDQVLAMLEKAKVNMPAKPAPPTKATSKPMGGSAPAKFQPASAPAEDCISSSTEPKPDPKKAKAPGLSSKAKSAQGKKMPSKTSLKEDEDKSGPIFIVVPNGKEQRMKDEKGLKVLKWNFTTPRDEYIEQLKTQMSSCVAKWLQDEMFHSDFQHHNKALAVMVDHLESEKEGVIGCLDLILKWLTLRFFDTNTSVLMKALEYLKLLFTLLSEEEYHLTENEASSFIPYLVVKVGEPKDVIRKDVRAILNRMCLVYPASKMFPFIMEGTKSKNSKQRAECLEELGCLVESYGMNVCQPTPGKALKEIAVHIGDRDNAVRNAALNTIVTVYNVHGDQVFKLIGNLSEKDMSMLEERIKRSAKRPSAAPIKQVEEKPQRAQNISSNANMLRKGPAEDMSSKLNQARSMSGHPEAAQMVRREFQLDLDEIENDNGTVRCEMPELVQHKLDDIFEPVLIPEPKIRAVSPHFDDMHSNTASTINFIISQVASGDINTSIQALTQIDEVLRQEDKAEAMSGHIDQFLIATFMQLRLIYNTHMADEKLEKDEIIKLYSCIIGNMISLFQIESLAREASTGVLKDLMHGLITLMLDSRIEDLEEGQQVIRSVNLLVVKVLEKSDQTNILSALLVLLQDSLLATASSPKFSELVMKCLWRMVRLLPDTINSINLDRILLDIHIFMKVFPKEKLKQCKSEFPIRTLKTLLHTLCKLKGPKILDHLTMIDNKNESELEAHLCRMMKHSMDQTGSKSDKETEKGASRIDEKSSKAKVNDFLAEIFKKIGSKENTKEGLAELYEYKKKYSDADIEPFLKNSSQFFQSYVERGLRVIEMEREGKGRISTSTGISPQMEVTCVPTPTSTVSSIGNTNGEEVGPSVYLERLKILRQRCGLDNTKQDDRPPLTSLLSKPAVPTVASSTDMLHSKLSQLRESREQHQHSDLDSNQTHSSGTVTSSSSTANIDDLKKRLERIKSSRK
UniProt Q14188: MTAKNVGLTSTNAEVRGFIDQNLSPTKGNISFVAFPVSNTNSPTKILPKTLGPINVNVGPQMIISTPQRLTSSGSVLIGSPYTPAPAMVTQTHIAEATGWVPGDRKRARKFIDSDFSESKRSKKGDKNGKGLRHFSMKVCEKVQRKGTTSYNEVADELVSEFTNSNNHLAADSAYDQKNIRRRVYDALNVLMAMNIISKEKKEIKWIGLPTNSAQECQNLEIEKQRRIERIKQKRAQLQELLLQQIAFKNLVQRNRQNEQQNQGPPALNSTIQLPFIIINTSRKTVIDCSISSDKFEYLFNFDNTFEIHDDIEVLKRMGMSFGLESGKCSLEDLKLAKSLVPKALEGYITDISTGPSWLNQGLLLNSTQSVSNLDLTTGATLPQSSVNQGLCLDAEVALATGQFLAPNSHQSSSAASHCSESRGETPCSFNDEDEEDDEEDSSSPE
UniProt Q13868, whole entry: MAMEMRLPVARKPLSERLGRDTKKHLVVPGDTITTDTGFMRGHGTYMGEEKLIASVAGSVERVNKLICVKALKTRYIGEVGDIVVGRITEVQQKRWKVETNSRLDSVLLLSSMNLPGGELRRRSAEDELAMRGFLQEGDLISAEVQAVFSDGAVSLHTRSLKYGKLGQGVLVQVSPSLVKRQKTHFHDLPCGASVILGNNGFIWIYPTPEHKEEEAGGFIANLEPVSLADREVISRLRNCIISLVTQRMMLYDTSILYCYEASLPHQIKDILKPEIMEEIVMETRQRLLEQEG
UniProt Q13352: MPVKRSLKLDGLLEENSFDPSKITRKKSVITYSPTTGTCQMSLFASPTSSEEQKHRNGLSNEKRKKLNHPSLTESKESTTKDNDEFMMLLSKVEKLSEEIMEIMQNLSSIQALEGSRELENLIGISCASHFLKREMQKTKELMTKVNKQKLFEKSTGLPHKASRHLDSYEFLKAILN
UniProt Q13438: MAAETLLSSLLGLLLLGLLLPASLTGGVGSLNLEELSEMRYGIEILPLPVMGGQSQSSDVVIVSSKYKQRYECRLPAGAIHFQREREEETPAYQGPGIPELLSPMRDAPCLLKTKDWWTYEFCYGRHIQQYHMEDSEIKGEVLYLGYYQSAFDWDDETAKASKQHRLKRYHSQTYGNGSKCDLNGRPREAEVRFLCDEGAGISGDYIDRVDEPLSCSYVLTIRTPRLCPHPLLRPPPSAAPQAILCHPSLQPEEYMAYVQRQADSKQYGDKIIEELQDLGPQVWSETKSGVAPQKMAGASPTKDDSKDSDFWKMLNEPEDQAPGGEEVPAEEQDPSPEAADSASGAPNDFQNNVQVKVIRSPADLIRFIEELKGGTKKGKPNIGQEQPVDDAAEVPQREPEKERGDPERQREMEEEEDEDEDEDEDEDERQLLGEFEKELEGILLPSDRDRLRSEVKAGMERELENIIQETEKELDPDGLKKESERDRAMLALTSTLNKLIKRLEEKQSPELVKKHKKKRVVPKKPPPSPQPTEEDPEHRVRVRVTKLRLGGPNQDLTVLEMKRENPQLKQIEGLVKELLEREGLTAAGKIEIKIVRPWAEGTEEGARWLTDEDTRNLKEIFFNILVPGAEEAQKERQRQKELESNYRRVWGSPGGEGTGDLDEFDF
UniProt Q14679: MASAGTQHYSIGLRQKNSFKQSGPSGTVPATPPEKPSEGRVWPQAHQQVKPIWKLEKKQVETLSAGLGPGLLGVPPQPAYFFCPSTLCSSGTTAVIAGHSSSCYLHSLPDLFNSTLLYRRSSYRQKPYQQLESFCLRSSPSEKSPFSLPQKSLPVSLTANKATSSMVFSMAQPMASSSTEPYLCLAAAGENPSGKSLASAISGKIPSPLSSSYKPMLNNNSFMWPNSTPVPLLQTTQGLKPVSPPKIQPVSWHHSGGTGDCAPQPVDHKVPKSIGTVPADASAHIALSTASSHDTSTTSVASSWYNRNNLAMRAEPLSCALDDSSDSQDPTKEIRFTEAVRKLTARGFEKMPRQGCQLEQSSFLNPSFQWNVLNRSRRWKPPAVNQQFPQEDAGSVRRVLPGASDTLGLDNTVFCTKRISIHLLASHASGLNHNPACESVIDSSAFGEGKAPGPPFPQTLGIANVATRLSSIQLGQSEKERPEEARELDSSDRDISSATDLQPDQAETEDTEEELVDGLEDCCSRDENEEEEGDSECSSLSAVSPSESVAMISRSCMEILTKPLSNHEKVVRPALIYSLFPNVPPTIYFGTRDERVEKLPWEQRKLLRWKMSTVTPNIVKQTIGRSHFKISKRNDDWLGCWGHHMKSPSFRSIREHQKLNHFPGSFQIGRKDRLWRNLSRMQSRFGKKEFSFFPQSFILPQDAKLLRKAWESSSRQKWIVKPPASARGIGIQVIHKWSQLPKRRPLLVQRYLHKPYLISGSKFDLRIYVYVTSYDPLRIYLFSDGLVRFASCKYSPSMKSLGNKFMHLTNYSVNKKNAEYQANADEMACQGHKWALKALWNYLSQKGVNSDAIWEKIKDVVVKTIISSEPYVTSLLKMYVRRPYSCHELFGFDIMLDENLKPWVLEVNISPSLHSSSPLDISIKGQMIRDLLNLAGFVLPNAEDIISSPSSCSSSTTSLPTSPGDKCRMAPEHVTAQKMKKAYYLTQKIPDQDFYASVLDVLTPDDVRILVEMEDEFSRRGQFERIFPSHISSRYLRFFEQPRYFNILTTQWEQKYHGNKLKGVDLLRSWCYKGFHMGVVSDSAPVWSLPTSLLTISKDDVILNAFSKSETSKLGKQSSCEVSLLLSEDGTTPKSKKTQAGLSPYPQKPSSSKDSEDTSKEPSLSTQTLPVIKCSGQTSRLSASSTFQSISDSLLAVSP
UniProt Q14135: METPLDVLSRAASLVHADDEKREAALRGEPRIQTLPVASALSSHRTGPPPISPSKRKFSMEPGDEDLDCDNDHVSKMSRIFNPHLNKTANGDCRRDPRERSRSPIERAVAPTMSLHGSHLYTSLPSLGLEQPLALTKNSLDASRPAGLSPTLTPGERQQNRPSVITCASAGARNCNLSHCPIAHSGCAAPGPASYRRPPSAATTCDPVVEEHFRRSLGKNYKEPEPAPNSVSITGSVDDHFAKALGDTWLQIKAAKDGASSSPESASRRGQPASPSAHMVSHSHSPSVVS

Compound in this assay: Cc1nc(Nc2ncc(C(=O)Nc3c(C)cccc3Cl)s2)cc(N2CCN(CCO)CC2)n1 [dasatinib]
Nature of the assay: log2 fold change of tryptic peptide abundance, ligand vs vehicle (limited proteolysis) (log2 ratio); higher = more trypsin-susceptible (destabilized). The following applies: ligand concentration: 5 uM; sample: K562 cleared lysate.
On to “USP4 (peptide sequence: DRVMEVFLVPADPHCRPTQYR, peptide start residue: 486) (UniProt Q13107)”, for which the log2 fold change turned out to be 0.747. With “CKAP5 (peptide sequence: WNFTTPRDEYIEQLK, peptide start residue: 1183) (UniProt Q14008)” the figure was 0.764; with “TFDP2 (peptide sequence: KFIDSDFSESKR, peptide start residue: 110) (UniProt Q14188)”, 0.167.

Take “EXOSC2 (peptide sequence: SAEDELAMR, peptide start residue: 124) (UniProt Q13868)”: the log2 fold change was -0.48.

On to “ITGB3BP (peptide sequence: ELENLIGISCASHFLKR, peptide start residue: 118) (UniProt Q13352)”, for which the log2 fold change was -0.239. As to “OS9 (peptide sequence: LPAGAIHFQR, peptide start residue: 75) (UniProt Q13438)”, the log2 fold change came to 0.397. With “FLNC (peptide sequence: LTVTSLQETGLK, peptide start residue: 2411) (UniProt Q14315)” the figure was 0.132; with “TTLL4 (peptide sequence: MAPEHVTAQK, peptide start residue: 969) (UniProt Q14679)”, 0.707; with “VGLL4 (peptide sequence: QQNRPSVITCASAGAR, peptide start residue: 158) (UniProt Q14135)”, 0.236.

For “GAMT (peptide sequence: ILGKPVMER, peptide start residue: 36) (UniProt Q14353)”, the log2 fold change amounted to 0.0893.

Values taken from the supplement of paper PMC12819154, “High-throughput peptide-centric local stability assay extends protein–ligand identification to membrane proteins, tissues and bacteria” (Nature Structural & Molecular Biology, 2025).
